Source: PMC10992428
The exact form of at least one protein or probe is not confirmed. For some assays here: Negatives hold for the conditions tested. Where a protein sequence is shown, tags need not be part of it.

Legend:
[1] = target: T1, MtlR (Bacillus licheniformis) (UniProt Q62YQ4); experiment: EMSA; conditions: 0.5, 1.0 uM MtlR; 10 nM biotin probe, 10 mM Tris-HCl pH 7.4, 1 mM DTT, 1 mM EDTA, 50 mM KCl, 1 mM MgCl2, 0.05 ug/uL poly(dI-dC), 25 C, 20 min; 4% acrylamide, 0.5x TBE; recombinant protein; protein details: His-tag; label: biotin
T1 sequence (looked up, limits assumed): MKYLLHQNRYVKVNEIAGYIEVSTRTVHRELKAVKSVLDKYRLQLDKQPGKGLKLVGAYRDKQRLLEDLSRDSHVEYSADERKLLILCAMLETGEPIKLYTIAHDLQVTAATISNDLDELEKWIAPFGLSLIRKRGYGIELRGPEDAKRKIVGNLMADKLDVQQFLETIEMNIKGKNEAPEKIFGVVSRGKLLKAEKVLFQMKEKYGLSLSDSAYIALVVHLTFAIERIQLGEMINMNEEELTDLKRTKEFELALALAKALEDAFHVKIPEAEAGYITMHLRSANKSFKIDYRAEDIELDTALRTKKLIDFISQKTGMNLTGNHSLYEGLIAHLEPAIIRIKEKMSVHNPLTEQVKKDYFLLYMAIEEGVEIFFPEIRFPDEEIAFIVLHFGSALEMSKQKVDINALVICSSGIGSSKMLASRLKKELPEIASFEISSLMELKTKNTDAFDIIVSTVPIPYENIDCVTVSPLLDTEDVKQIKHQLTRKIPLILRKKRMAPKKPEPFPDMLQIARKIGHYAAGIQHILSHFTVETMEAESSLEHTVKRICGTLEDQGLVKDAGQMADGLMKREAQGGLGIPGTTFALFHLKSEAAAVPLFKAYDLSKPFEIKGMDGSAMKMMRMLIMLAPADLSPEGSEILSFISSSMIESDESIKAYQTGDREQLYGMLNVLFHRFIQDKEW

[2] = target: T2, CcpA (Bacillus licheniformis) (UniProt Q65G28); experiment: EMSA; conditions: 10 nM biotin probe, 10 mM Tris-HCl pH 7.4, 1 mM DTT, 1 mM EDTA, 50 mM KCl, 1 mM MgCl2, 0.05 ug/uL poly(dI-dC), 25 C, 20 min; 4% acrylamide, 0.5x TBE; recombinant protein; protein details: His-tag; label: biotin
T2 sequence (looked up, limits assumed): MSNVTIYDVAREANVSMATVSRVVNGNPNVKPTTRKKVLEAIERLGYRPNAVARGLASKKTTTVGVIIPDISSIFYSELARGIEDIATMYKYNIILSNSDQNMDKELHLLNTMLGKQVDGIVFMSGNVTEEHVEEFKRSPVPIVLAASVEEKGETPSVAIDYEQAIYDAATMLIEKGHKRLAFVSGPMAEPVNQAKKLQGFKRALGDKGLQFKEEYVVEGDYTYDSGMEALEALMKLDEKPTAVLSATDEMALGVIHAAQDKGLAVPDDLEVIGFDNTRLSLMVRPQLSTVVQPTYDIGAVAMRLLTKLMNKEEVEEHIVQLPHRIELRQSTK

TCCCCGTCAGATGGCCGGGAGCCGGATGAACCACCATTCCGCGCGGCTTGTTGACGACAAGAACGTCCTGATCTTATTATAATATAAGCAAAAAACTCTTGTCATCCTGCCAAATAAAAAGGAAAAGCATTGACCTGAAAACTTATCGGTAAAGTATGATATAATACAAAAAGACCGATTAGAGGGGAGAGAGGAAACATGCCTTCAGTTGAAAGTTTTGAACTTGACCATAATGCAGTAAAAGCGCCTTACGTCAGACACTGCGGCGTCCATAAAGTGGGATCCCTCGAGCGG (double strand) [A-4 (MtlR box 4)]
binding result [1]: binds
binding result [2]: no binding
